Source: article doi:10.1101/2025.11.17.688879
Results are given in words; binding and its absence hold for the method and conditions named. Binding seen in cells or lysates may run through a third protein. Some binding calls cover weakened binding; strength is not graded here. Sequences can lack the tags named with a protein.

T1: MbFADS-FLAG (FADS-like desaturase of Monosiga brevicollis) (Monosiga brevicollis)
T1 sequence: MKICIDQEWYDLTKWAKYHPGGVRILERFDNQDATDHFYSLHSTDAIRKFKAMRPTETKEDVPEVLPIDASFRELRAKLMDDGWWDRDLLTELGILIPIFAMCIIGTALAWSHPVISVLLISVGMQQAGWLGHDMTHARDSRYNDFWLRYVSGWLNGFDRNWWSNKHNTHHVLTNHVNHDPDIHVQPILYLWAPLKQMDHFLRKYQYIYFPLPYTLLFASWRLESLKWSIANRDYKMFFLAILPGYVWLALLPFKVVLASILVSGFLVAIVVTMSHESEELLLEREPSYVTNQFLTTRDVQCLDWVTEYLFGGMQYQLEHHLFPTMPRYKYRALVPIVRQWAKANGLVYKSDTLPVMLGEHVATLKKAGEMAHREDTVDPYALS

T2: HA-MbSTING (STING of Monosiga brevicollis), expressed in HEK 293T (Monosiga brevicollis)
T2 sequence: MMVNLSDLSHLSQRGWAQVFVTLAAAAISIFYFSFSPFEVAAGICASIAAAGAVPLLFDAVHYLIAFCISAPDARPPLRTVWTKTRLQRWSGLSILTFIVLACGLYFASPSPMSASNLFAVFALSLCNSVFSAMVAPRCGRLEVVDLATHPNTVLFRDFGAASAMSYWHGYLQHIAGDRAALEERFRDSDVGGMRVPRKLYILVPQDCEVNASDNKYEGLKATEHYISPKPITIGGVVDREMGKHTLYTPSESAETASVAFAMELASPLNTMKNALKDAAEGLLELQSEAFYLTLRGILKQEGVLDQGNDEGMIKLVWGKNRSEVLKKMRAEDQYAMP

T3: HA-MmSTING (STING of Mus musculus), expressed in HEK 293T (Mus musculus)
T3 sequence: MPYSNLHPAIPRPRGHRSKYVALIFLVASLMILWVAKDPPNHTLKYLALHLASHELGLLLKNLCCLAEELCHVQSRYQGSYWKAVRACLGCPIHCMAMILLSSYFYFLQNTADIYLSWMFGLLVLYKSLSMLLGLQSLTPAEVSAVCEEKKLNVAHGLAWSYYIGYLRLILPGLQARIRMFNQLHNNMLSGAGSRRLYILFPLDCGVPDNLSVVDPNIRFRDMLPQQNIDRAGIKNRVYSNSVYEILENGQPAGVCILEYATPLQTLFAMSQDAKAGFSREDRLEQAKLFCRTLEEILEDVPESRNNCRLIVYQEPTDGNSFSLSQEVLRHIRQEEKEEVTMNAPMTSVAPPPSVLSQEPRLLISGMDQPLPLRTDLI

T4: NvFADS-FLAG (FADS-like desaturase of Nematostella vectensis) (Nematostella vectensis)
T4 sequence: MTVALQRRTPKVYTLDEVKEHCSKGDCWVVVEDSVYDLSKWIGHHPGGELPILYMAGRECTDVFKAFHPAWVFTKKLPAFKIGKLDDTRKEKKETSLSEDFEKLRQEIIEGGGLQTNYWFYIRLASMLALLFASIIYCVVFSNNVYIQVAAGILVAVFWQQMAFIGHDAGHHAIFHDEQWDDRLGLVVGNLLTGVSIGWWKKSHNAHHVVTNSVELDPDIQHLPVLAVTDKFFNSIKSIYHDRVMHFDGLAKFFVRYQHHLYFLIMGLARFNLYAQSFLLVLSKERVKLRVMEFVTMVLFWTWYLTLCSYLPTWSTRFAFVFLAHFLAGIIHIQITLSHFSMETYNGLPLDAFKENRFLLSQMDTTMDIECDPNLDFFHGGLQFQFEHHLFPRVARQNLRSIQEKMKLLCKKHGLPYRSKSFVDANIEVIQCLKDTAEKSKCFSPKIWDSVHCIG

T5: HA-XtSTING (STING of Xenopus tropicalis), expressed in HEK 293T (Xenopus tropicalis)
T5 sequence: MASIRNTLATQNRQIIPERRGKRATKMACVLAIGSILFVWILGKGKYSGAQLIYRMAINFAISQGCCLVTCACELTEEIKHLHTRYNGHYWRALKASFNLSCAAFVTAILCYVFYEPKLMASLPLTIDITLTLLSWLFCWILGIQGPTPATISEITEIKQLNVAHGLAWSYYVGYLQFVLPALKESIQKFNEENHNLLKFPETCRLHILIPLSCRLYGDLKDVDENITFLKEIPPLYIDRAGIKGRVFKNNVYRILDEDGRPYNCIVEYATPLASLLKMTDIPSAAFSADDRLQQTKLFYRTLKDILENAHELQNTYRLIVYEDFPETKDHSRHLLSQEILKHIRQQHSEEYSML

B1: HA-MbSTING (STING of Monosiga brevicollis), expressed in HEK 293T (protein)
chain: T2 sequence
B2: XtFADS2-FLAG (FADS2 of Xenopus tropicalis) (protein)
chain: MGMGGQSGEGCSSGNCVKPEARYSWEEIQKHNLKTDKWLVIERKVYNITQWVKCHPGGMRVIGHYAGEDATDAFHAFHPDKNFVRKFLKPLYVGELAENEPSQDRDKNAQQVEDFRALRKTAEDMGLFKSNPAFFIVYLFHILLIEFLAWCTLHYFGTGWIPTILTVLLLTISQAQAGWLQHDFGHLSVFKKSKWNHLIHKFIIGHLKGASANWWNHRHFQHHAKPNIFRKDPDVNMVNVFVLGDTQPVEFGKKRIKYLPYNHQHLYFFLIGPPLLIPIYFTIQIMKTMITRKDWVDLAWSVSYYARFFITFVPFYGVLGSLALLNAVRFIESHWFVWVTQMNHLPMVIDHEKYKDWLETQLAATCNIEPSFFNDWFSGHLNFQIEHHLFPTMPRHNYWKIAPLVRSLCSKYNVTYEEKCLYHGFRDVFRSLKKSGQLWLDAYLHK
B3: HA-NvSTING (STING of Nematostella vectensis), expressed in HEK 293T (protein)
chain: MRRAEENNGFGTIPKRRNQHTPFYASIGMIVVIIVAFTSYHITSYGDDRNRAMRQYSFTFSLAYLAFLVGELLRRCCLFAEEYRHIETRYNGSLKKAIQTTFSFGHNNVLFVASLLFFVVFVASNDPNGSSSVIQGNSTAEPHTEMRQTSGWQGLWGQFIISALLTPLVVHLLGLRELSKVEESQLNEKENKNVADGLAWSYYFGYLKFVLPELEKQIEKTSKFRSKEKFVKKMFILIPSNCFWDDKIPGSDYDPQNRITFEGNTEPLEKTRGGVFLRHYKHSVYEIKDGENEPWFCIMEYATPLLTLYDMSVAQPGELSREERDAQVVVFLRKLQDILEGDRACQGKYELVTFSPDRDLADVMLRKLKDSELEIGG
B4: MbFADS-FLAG (FADS-like desaturase of Monosiga brevicollis) (protein)
chain: T1 sequence
B5: NvFADS-FLAG (FADS-like desaturase of Nematostella vectensis) (protein)
chain: T4 sequence

Experiments:
Assay in all cases: co-IP
[1] = biological target: T1, MbFADS-FLAG (FADS-like desaturase of Monosiga brevicollis) (Monosiga brevicollis)
[2] = biological target: T2, HA-MbSTING (STING of Monosiga brevicollis), expressed in HEK 293T (Monosiga brevicollis)
[3] = biological target: T3, HA-MmSTING (STING of Mus musculus), expressed in HEK 293T (Mus musculus)
[4] = biological target: T4, NvFADS-FLAG (FADS-like desaturase of Nematostella vectensis) (Nematostella vectensis)
[5] = biological target: T5, HA-XtSTING (STING of Xenopus tropicalis), expressed in HEK 293T (Xenopus tropicalis)
[6] = biological target: HA-NvSTING (STING of Nematostella vectensis), expressed in HEK 293T (Nematostella vectensis)

Binder	binding [2]	binding [3]	other results
B1	–	–	binding [1]: binds
B2	binds	binds weakly	–
B3	–	–	binding [4]: binds
B4	binds	binds	binding [5]: binds; binding [6]: binds
B5	no binding	–	–
